Assay results published in paper PMC5662619.
These are yes or no findings as the source states them, for the method shown. Binding seen in cells or lysates may run through a third protein. Some binding calls cover weakened binding; strength is not graded here. Tags and fused reporters may be left off the sequences shown.

Legend:
[1] = biological target: T1, Pyo-tagged ARAF^1–287 (ARAF NTR) (UniProt P10398); experiment: co-IP; lysates of HEK293T cells (Triton lysis buffer: 50 mM Tris-HCl pH 7.5, 150 mM NaCl, 0.2% Triton X-100, 1 mM EDTA, 10% glycerol), starved overnight, treated with DMSO or kinase inhibitors (1 or 10 µM, 2 h); primary antibody and protein A/G beads, 4 °C, 4 h
T1 sequence: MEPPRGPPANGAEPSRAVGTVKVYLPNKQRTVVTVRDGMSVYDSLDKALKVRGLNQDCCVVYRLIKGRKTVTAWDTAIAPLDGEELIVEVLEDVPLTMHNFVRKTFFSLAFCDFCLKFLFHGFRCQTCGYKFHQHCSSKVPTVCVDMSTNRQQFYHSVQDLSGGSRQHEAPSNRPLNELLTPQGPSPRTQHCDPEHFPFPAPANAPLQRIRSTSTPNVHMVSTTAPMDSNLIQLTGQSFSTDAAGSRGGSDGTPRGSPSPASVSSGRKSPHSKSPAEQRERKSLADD

[2] = biological target: T2, Pyo-tagged KSR1^1–558 (KSR1 NTR) (UniProt Q8IVT5); experiment: as above
T2 sequence: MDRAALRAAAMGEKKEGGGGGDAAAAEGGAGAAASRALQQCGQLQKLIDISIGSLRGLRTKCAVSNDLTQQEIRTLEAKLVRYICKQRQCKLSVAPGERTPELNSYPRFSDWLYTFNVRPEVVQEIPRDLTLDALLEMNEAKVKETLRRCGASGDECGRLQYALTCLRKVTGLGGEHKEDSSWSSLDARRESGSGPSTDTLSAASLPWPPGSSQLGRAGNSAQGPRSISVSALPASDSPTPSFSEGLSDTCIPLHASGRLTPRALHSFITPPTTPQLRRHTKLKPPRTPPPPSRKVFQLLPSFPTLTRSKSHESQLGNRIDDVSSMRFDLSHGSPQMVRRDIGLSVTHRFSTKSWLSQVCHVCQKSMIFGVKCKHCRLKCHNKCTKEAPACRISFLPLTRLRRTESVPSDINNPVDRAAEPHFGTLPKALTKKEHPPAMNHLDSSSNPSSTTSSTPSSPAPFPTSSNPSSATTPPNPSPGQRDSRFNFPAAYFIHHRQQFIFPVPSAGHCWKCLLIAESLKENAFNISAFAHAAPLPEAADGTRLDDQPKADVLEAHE

B1: Flag-tagged ARAF^288–606 (ARAF kinase domain) (domain or fragment, UniProt P10398 288-606)
chain: KKKVKNLGYRDSGYYWEVPPSEVQLLKRIGTGSFGTVFRGRWHGDVAVKVLKVSQPTAEQAQAFKNEMQVLRKTRHVNILLFMGFMTRPGFAIITQWCEGSSLYHHLHVADTRFDMVQLIDVARQTAQGMDYLHAKNIIHRDLKSNNIFLHEGLTVKIGDFGLATVKTRWSGAQPLEQPSGSVLWMAAEVIRMQDPNPYSFQSDVYAYGVVLYELMTGSLPYSHIGCRDQIIFMVGRGYLSPDLSKISSNCPKAMRRLLSDCLKFQREERPLFPQILATIELLQRSLPKIERSASEPSLHRTQADELPACLLSAARLVP
With B1 the binding [1] was “binds”.

B2: Flag-tagged KSR1^591–899 (KSR1 kinase domain) (domain or fragment, UniProt Q8IVT5 591-899)
chain: PISRKASQTSVYLQEWDIPFEQVELGEPIGQGRWGRVHRGRWHGEVAIRLLEMDGHNQDHLKLFKKEVMNYRQTRHENVVLFMGACMNPPHLAIITSFCKGRTLHSFVRDPKTSLDINKTRQIAQEIIKGMGYLHAKGIVHKDLKSKNVFYDNGKVVITDFGLFGISGVVREGRRENQLKLSHDWLCYLAPEIVREMTPGKDEDQLPFSKAADVYAFGTVWYELQARDWPLKNQAAEASIWQIGSGEGMKRVLTSVSLGKEVSEILSACWAFDLQERPSFSLLMDMLEKLPKLNRRLSHPGHFWKSADI
B2 was tested, and the binding [2] was “binds”.
